Data: PMC6888645
Results are given in words; binding and its absence hold for the method and conditions named. Binding seen in cells or lysates may run through a third protein. Some binding calls cover weakened binding; strength is not graded here.

Chains of the proteins cited; added tags and fusions are not shown.
UniProt Q01518: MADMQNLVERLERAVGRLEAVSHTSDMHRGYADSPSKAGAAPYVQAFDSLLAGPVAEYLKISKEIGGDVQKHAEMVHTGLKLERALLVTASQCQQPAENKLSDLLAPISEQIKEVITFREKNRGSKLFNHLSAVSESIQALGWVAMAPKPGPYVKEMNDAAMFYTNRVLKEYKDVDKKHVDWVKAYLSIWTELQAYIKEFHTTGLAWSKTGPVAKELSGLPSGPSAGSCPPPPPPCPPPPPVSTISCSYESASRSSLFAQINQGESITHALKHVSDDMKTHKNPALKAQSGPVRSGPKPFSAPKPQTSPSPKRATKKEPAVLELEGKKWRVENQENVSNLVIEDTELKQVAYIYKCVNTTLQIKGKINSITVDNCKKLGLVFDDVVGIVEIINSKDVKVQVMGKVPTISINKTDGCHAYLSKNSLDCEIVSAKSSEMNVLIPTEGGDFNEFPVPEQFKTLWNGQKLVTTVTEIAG
UniProt Q9Y281: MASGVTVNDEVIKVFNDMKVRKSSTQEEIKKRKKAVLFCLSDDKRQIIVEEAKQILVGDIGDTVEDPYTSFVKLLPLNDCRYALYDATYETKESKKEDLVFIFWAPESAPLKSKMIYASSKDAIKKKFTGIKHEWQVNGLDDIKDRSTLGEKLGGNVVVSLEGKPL
UniProt P23528: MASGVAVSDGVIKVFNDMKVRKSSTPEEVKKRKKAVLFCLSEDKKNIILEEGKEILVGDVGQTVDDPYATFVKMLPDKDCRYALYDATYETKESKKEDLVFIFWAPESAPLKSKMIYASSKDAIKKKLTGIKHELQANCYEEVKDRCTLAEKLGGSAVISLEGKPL

Target: cyclase-associated protein 1 (native CAP1 in Hs 578T cells) (human (endogenous in Hs 578T)) (UniProt Q01518)
Assay: proximity ligation; Duolink in situ PLA on fixed and permeabilised Hs 578T cells with anti-CAP1 and anti-CFL1 or anti-CFL2 primary antibodies; single primary antibody as negative control; proximity <40 nm

| binding | Substance |
| --- | --- |
| binds | cofilin 2 (native CFL2 in Hs 578T cells) (from UniProt Q9Y281 1-166) |
| binds | non-muscle cofilin 1 (native CFL1 in Hs 578T cells) (from UniProt P23528 1-166) |
